Measured values taken from the supplement of paper PMC8728848.
This is one part of the list.

Experiments:
Assay in all cases: glycan array binding signal (z-score within array); higher = stronger binding
Conditions in all cases: glycan notation: IUPAC condensed, linker removed
[1] = target: Gal(b1-3)GlcNAc(b1-6)[Gal(b1-3)]GalNAc
How it was run: (§1)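 The binding signal is a Z-score computed within each array and averaged over linkers. Arrays of the same protein sequence at different concentrations or buffers were also averaged together. Data originate from 3228 arrays in the Consortium for Functional Glycomics database, kept only where the protein sequence was available.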

Gal(b1-3)GlcNAc6S = target: Gal(b1-3)GlcNAc6S
How it was run: as §1

[2] = target: Gal(b1-3)[Fuc(a1-4)]GlcNAc
How it was run: as §1

[3] = target: Gal(b1-3)[Fuc(a1-4)]GlcNAc(b1-2)Man
How it was run: as §1

[4] = target: Gal(b1-3)[Fuc(a1-4)]GlcNAc(b1-2)Man(a1-3)[Gal(b1-3)[Fuc(a1-4)]GlcNAc(b1-2)Man(a1-6)]Man(b1-4)GlcNAc(b1-4)[Fuc(a1-6)]GlcNAc
How it was run: as §1

[5] = target: Gal(b1-3)[Fuc(a1-4)]GlcNAc(b1-3)Gal(b1-3)[Fuc(a1-4)]GlcNAc
How it was run: as §1

[6] = target: Gal(b1-3)[Fuc(a1-4)]GlcNAc(b1-3)Gal(b1-4)[Fuc(a1-3)]GlcNAc
How it was run: as §1

[7] = target: Gal(b1-3)[Fuc(a1-4)]GlcNAc(b1-6)GalNAc
How it was run: as §1

[8] = target: Gal(b1-3)[GlcNAc(b1-6)]GalNAc
How it was run: as §1

[9] = target: Gal(b1-3)[Neu5Ac(a2-6)]GalNAc
How it was run: as §1

[10] = target: Gal(b1-3)[Neu5Ac(a2-6)]GlcNAc(b1-4)Gal(b1-4)Glc
How it was run: as §1

[11] = target: Gal(b1-3)[Neu5Ac(b2-6)]GalNAc
How it was run: as §1

Gal(b1-4)Gal = target: Gal(b1-4)Gal
How it was run: as §1

[12] = target: Gal(b1-4)GalNAc(a1-3)[Fuc(a1-2)]Gal(b1-4)GlcNAc
How it was run: as §1

[13] = target: Gal(b1-4)GalNAc(b1-3)[Fuc(a1-2)]Gal(b1-4)GlcNAc
How it was run: as §1

Gal(b1-4)Glc = target: Gal(b1-4)Glc
How it was run: as §1

Gal(b1-4)Glc6S = target: Gal(b1-4)Glc6S
How it was run: as §1

Gal(b1-4)GlcNAc = target: Gal(b1-4)GlcNAc
How it was run: as §1

[14] = target: Gal(b1-4)GlcNAc(a1-6)Gal(b1-4)GlcNAc
How it was run: as §1

Gal(b1-4)GlcNAc(b1-2)Man = target: Gal(b1-4)GlcNAc(b1-2)Man
How it was run: as §1

[15] = target: Gal(b1-4)GlcNAc(b1-2)Man(a1-3)Man(b1-4)GlcNAc(b1-4)GlcNAc
How it was run: as §1

[16] = target: Gal(b1-4)GlcNAc(b1-2)Man(a1-3)[Gal(b1-4)GlcNAc(b1-2)Man(a1-6)]Man(b1-4)GlcNAc(b1-4)GlcNAc
How it was run: as §1

[17] = target: Gal(b1-4)GlcNAc(b1-2)Man(a1-3)[Gal(b1-4)GlcNAc(b1-2)Man(a1-6)]Man(b1-4)GlcNAc(b1-4)[Fuc(a1-6)]GlcNAc
How it was run: as §1

[18] = target: Gal(b1-4)GlcNAc(b1-2)Man(a1-3)[Gal(b1-4)GlcNAc(b1-2)Man(a1-6)][Gal(b1-4)GlcNAc(b1-4)]Man(b1-4)GlcNAc(b1-4)[Fuc(a1-6)]GlcNAc
How it was run: as §1

[19] = target: Gal(b1-4)GlcNAc(b1-2)Man(a1-3)[Gal(b1-4)GlcNAc(b1-2)Man(a1-6)][GlcNAc(b1-4)]Man(b1-4)GlcNAc(b1-4)[Fuc(a1-6)]GlcNAc
How it was run: as §1

[20] = target: Gal(b1-4)GlcNAc(b1-2)Man(a1-3)[GlcNAc(b1-2)Man(a1-6)]Man(b1-4)GlcNAc(b1-4)GlcNAc
How it was run: as §1

[21] = target: Gal(b1-4)GlcNAc(b1-2)Man(a1-3)[GlcNAc(b1-4)][Gal(b1-4)GlcNAc(b1-2)Man(a1-6)]Man(b1-4)GlcNAc(b1-4)GlcNAc
How it was run: as §1

[22] = target: Gal(b1-4)GlcNAc(b1-2)Man(a1-3)[Man(a1-6)]Man(b1-4)GlcNAc(b1-4)GlcNAc
How it was run: as §1

[23] = target: Gal(b1-4)GlcNAc(b1-2)Man(a1-6)Man(b1-4)GlcNAc(b1-4)GlcNAc
How it was run: as §1

[24] = target: Gal(b1-4)GlcNAc(b1-2)Man(a1-6)[GlcNAc(b1-2)Man(a1-3)]Man(b1-4)GlcNAc(b1-4)GlcNAc
How it was run: as §1

[25] = target: Gal(b1-4)GlcNAc(b1-2)Man(a1-6)[Man(a1-3)]Man(b1-4)GlcNAc(b1-4)GlcNAc
How it was run: as §1

[26] = target: Gal(b1-4)GlcNAc(b1-2)[Gal(b1-4)GlcNAc(b1-4)]Man(a1-3)[Gal(b1-4)GlcNAc(b1-2)Man(a1-6)]Man(b1-4)GlcNAc(b1-4)GlcNAc
How it was run: as §1

[27] = target: Gal(b1-4)GlcNAc(b1-2)[Gal(b1-4)GlcNAc(b1-4)]Man(a1-3)[Gal(b1-4)GlcNAc(b1-2)[Gal(b1-4)GlcNAc(b1-6)]Man(a1-6)]Man(b1-4)GlcNAc(b1-4)GlcNAc
How it was run: as §1

[28] = target: Gal(b1-4)GlcNAc(b1-2)[Gal(b1-4)GlcNAc(b1-4)]Man(a1-3)[GlcNAc(b1-4)][Gal(b1-4)GlcNAc(b1-2)Man(a1-6)]Man(b1-4)GlcNAc(b1-4)GlcNAc
How it was run: as §1

[29] = target: Gal(b1-4)GlcNAc(b1-2)[Gal(b1-4)GlcNAc(b1-4)]Man(a1-3)[GlcNAc(b1-4)][Gal(b1-4)GlcNAc(b1-2)[Gal(b1-4)GlcNAc(b1-6)]Man(a1-6)]Man(b1-4)GlcNAc(b1-4)GlcNAc
How it was run: as §1

[30] = target: Gal(b1-4)GlcNAc(b1-2)[Gal(b1-4)GlcNAc(b1-6)]Man(a1-6)[Gal(b1-4)GlcNAc(b1-2)Man(a1-3)]Man(b1-4)GlcNAc(b1-4)GlcNAc
How it was run: as §1

[31] = target: Gal(b1-4)GlcNAc(b1-2)[Gal(b1-4)GlcNAc(b1-6)]Man(a1-6)[Gal(b1-4)GlcNAc(b1-2)Man(a1-3)]Man(b1-4)GlcNAc(b1-4)[Fuc(a1-6)]GlcNAc
How it was run: as §1

B1: PX14343E-bfa-545-24-545 (Bacteroides fragilis) (protein)
chain: LDRYPQEELSDGSFWKTPDDANKVVSDLYGYLSTWDQDNDINSDNATMGIKWAAGNVSKGIYDPADQGWSGDYANVRQCNLILSKIDEIPDYPEADKTKALGQVYFFRAYIYFNLIRSFGDVPYIDKPLDLKDMEGITRMPRAEVYEKIMADFDKAIAALPTEWGASDYGRVTKGAAMAMKARAALYYGNWDTAATEAKNVMDLGLYELYDKDNTGKYAELFWEKADGCDEFILVTQFNYPDKTHYLMGWECFPTKGWGGMNPTQSLVDAFEDSEGAPISKSKIYDPTDPFKNRDPRLEVDILHDGEEMYGVTIKVAPLASSGSTGINQHNDATETGYYGQKWLDPSLDPLSDGWNMGKDWVHIRYAEVLLTYAEAKNELQGLDPEAFDAVNQVRRRVGMPELQNTDPSKPTYCATQDDLRQRIRNEWRVEFCLEGGKRMWDIRRWGIAKDVLNAPFEGLKYKIVDNPNDPDKKVDGGKMCILYQGDPIILSGSRYSDNNYLFPVPQSEIDLNPALTQNPGY
B1 was tested, and the “glycan array binding signal (z-score)” value [1] was -0.103, the “glycan array binding signal (z-score)” value (Gal(b1-3)GlcNAc6S) was 0.62 and the “glycan array binding signal (z-score)” value [2] was -0.381. The “glycan array binding signal (z-score)” value [3] was -0.724, the “glycan array binding signal (z-score)” value [4] was 0.958 and the “glycan array binding signal (z-score)” value [5] was -0.886. For the same binder, the “glycan array binding signal (z-score)” value [6] was -0.34, the “glycan array binding signal (z-score)” value [7] was 0.38 and the “glycan array binding signal (z-score)” value [8] was -0.59. For the same binder, the “glycan array binding signal (z-score)” value [9] was -1.01, the “glycan array binding signal (z-score)” value [10] was -0.838 and the “glycan array binding signal (z-score)” value [11] was -0.061. The “glycan array binding signal (z-score)” value (Gal(b1-4)Gal) was -0.239, the “glycan array binding signal (z-score)” value [12] was -0.754 and the “glycan array binding signal (z-score)” value [13] was -0.995. For the same binder, the “glycan array binding signal (z-score)” value (Gal(b1-4)Glc) was -0.472, the “glycan array binding signal (z-score)” value (Gal(b1-4)Glc6S) was 0.534 and the “glycan array binding signal (z-score)” value (Gal(b1-4)GlcNAc) was -0.277. For the same binder, the “glycan array binding signal (z-score)” value [14] was -0.402, the “glycan array binding signal (z-score)” value (Gal(b1-4)GlcNAc(b1-2)Man) was -0.238 and the “glycan array binding signal (z-score)” value [15] was 0.631. For the same binder, the “glycan array binding signal (z-score)” value [16] was -0.321, the “glycan array binding signal (z-score)” value [17] was 0.236 and the “glycan array binding signal (z-score)” value [18] was -0.524. For the same binder, the “glycan array binding signal (z-score)” value [19] was -1.04, the “glycan array binding signal (z-score)” value [20] was -0.179 and the “glycan array binding signal (z-score)” value [21] was -0.633. For the same binder, the “glycan array binding signal (z-score)” value [22] was 0.062, the “glycan array binding signal (z-score)” value [23] was -0.785 and the “glycan array binding signal (z-score)” value [24] was -0.624. The “glycan array binding signal (z-score)” value [25] was -0.298, the “glycan array binding signal (z-score)” value [26] was -0.705 and the “glycan array binding signal (z-score)” value [27] was 1.24. For the same binder, the “glycan array binding signal (z-score)” value [28] was -0.51, the “glycan array binding signal (z-score)” value [29] was 0.756 and the “glycan array binding signal (z-score)” value [30] was 0.094. For the same binder, the “glycan array binding signal (z-score)” value [31] was -0.246.
